# According to patent US7897779B2, “Ionic UV-A sunscreens and compositions containing them” (DSM IP Assets B.V., priority 2004, dated 2011):
# For at least one compound, name, drawing or mass did not settle the structure.
# Experiment: UV absorption spectrum (absorption maximum and extinction E)
# Format: physicochemical
# Conditions: UV (ethanol), at absorption maximum
# Text: This salt was recrystallized from DMF.
# The reaction mixture was concentrated at the rotavap, followed by HV drying. The residue is washed with cyclohexane and then with ethylacetate followed by recrystallization from ethanol.
compound,measurement,value
CC1=CC(=C(C#N)C#N)C=C(C)N1CCC[N+](C)(C)CCOCCOCCO.[I-] [Example 3],extinction (value in brackets after the maximum),37'946
